Consider two molecules from article PMC4030770.

Protein sequences, listed by entry. Tags and fused reporters are not part of them.
UniProt Q8C015: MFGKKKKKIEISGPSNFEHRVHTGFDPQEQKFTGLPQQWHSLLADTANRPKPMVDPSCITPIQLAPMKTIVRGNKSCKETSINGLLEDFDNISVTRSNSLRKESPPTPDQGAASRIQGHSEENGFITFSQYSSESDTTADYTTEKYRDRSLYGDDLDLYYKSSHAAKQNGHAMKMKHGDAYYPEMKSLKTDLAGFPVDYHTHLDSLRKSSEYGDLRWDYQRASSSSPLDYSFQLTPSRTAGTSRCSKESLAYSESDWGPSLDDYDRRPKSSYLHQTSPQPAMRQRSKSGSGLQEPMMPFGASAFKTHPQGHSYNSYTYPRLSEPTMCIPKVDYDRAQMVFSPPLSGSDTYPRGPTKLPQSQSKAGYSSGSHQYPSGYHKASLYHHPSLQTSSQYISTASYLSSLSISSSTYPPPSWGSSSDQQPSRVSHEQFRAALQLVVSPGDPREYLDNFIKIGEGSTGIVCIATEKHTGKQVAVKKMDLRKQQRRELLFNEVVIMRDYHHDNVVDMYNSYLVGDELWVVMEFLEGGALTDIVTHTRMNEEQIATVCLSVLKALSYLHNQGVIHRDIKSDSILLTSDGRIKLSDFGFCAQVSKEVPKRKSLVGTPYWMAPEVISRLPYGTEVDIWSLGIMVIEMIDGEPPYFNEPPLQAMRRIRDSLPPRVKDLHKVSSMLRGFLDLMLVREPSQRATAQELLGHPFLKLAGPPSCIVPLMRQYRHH

These are yes or no findings as the source states them, for the method shown. In cells and extracts the contact can be indirect. Some entries that bind do so weakly or less than the wild type.

For assay [1], the target named is T1, DISC1 (mouse (endogenous in mouse brain)) (UniProt Q811T9).
T1 sequence: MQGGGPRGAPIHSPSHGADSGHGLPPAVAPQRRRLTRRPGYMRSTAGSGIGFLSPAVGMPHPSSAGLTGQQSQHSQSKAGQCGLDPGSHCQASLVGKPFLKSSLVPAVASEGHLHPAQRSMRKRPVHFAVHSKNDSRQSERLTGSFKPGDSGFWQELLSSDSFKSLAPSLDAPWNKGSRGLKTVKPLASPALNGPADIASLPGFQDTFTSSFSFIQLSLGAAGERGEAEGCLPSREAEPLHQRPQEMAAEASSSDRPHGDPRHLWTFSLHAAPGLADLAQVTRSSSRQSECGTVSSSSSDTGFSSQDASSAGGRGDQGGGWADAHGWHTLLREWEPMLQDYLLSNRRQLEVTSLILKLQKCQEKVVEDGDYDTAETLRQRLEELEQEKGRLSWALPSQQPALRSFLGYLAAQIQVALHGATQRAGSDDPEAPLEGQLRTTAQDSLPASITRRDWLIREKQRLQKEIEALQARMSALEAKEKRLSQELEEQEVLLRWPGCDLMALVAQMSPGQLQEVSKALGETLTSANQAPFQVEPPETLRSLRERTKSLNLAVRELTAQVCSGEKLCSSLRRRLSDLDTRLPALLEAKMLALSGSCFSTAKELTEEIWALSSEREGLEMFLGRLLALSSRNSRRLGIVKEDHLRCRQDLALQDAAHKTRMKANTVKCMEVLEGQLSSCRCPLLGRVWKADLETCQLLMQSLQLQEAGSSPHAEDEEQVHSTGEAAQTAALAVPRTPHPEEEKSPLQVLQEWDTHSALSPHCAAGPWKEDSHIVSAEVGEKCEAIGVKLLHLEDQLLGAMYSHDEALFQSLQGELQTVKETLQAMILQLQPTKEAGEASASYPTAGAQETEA
The assay can be described thus: co-IP; 1000 ug synaptoneurosomal extract of full mouse brain in 500 ul extraction buffer (10 mM Tris, 0.1 M NaCl, 4 mM EDTA, 0.1% NP40); precipitated with 4 ug goat anti-PAK7 or goat anti-DISC1 for 16 h, protein A/G agarose; western blot for the other protein; normal goat IgG as negative control. A general note: A western blot detects proteins with antibodies after separation by electrophoresis.

In assay [2] the target is p21 Protein-Activated Kinase 7 (mouse (endogenous in mouse brain)) (UniProt Q8C015). Described as above.

Consider “p21 Protein-Activated Kinase 7 (from UniProt Q8C015 1-719)”, for which the binding result in assay [1] is recorded as “binds”.

B1: DISC1 (protein, UniProt Q811T9 1-852)
chain: T1 sequence
For the molecule B1, in assay [2], the binding result is “binds”.
